Results: PMC5672003
No constants are given. Whether binding was seen depends on the method and setting. Binding seen in cells or lysates may run through a third protein. Here binding means that the protein was enriched with, or labelled near, the bait; the list need not be complete. Blank lines part the entries; values can stand above or below the molecule they belong to.

Target: T1, …1 (Arabidopsis (endogenous in leaves)) (UniProt P32961)
T1 sequence: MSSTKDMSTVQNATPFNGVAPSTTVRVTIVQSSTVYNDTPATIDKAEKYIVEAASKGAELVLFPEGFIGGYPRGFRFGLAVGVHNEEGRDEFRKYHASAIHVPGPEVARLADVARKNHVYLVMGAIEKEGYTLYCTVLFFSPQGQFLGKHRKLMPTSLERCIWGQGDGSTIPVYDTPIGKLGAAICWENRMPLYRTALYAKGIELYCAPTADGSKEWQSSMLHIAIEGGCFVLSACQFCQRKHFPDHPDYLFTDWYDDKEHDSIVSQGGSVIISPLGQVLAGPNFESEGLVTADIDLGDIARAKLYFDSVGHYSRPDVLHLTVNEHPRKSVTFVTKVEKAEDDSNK
Assay: affinity purification with mass spectrometry; CoIP-MS with anti-NIT1 antibody against preimmune sera; three biological replicates; cholate-solubilized microsomal proteins of Arabidopsis leaves; hits needed two or more peptides

binding: binds
Molecule: THIOREDEXOIN M-TYPE1 (Arabidopsis (endogenous in leaves))

binding: binds
B1: THIOREDOXIN M2 (protein, UniProt Q9SEU8 73-186)
chain: CEAQETTTDIQVVNDSTWDSLVLKATGPVVVDFWAPWCGPCKMIDPLVNDLAQHYTGKIKFYKLNTDESPNTPGQYGVRSIPTIMIFVGGEKKDTIIGAVPKTTLTSSLDKFLP

binding: binds
B2: NIT3 (enzyme, UniProt P46010 1-346)
chain: MSSTEEMSSVKNTTQVIGVDPSSTVRVTIVQSSTVYNDTPATLDKAEKFIVEAASKGAKLVLFPEAFIGGYPRGFRFGLAVGVHNEEGRDEFRNYHASAIKVPGPEVERLAELAGKNNVHLVMGAIEKDGYTLYCTALFFSPQGQFLGKHRKVMPTSLERCIWGQGDGSTIPVYDTPIGKIGAAICWENRMPLYRTALYAKGIEIYCAPTADYSLEWQASMIHIAVEGGCFVLSAHQFCKRREFPEHPDYLFNDIVDTKEHDPTVSGGGSVIISPLGKVLAGPNYESEGLVTADLDLGDIARAKLYFDVVGHYSKPDIFNLTVNEHPKKPVTFMTKVEKAEDESNK
